By UniProt entry, the sequences of proteins in these tests, tags left out. Where a name states a change or a piece, a line headed by the entry shows the natural chain unless it says otherwise.
UniProt P17214: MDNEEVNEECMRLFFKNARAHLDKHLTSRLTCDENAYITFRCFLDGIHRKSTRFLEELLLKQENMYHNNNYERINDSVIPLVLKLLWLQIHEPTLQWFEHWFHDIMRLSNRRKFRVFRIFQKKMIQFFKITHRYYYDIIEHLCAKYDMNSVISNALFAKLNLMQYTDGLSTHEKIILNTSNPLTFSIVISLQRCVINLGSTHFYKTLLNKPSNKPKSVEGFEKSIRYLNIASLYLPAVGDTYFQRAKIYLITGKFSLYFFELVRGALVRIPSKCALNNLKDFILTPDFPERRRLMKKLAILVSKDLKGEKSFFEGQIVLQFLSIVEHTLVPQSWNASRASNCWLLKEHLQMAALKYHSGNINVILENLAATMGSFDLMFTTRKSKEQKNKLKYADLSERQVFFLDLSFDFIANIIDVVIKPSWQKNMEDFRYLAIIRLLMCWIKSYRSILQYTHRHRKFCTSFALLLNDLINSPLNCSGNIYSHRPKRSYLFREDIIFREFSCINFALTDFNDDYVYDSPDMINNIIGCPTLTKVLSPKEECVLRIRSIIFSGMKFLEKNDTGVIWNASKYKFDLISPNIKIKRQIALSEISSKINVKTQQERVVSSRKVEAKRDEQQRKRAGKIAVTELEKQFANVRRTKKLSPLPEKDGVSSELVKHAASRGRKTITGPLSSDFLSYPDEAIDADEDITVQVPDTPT

In PMC5753878:

Target: T1, Cdc13 tagged with (FLAG)3 (S. cerevisiae) (UniProt P32797)
T1 sequence: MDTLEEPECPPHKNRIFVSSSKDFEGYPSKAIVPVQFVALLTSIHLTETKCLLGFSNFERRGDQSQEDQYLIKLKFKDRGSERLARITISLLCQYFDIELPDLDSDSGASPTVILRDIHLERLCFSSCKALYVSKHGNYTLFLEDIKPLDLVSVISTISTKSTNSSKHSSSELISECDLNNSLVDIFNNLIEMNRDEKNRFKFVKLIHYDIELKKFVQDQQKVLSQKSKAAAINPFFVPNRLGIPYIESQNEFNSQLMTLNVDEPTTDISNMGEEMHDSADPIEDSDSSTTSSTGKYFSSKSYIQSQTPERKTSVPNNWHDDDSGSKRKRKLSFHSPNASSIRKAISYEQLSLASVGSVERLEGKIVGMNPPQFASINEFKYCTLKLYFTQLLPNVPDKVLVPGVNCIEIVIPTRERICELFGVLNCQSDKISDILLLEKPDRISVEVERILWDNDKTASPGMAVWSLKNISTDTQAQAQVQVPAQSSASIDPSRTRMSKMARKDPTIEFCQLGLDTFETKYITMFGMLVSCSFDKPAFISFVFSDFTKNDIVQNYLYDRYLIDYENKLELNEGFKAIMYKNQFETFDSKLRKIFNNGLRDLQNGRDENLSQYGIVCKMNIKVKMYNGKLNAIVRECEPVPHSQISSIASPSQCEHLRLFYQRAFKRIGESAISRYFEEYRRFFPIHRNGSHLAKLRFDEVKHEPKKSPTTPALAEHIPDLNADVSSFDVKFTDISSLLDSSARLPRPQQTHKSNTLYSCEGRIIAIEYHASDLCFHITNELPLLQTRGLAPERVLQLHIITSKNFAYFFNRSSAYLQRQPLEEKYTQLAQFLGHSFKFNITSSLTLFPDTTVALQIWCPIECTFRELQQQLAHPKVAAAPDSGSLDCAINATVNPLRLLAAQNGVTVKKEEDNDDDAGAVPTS
Assay: co-IP; anti-FLAG IP of Cdc13 tagged with (FLAG)3 from yeast extracts, Est1 tagged with (myc)12

Est1-(myc)12 with a mutation of K555 (from UniProt P17214)
binding: binds

These are yes or no findings as the source states them, for the method shown. Binding seen in cells or lysates may run through a third protein. A result given as binding can be weak or reduced; the word gives no strength. Sequences can lack the tags named with a protein.
